# Experimental data taken from patent US7994164B2, “Mineralocorticoid receptor antagonists and methods of use” (Eli Lilly and Company, priority 2007, dated 2011).
# Some of these results come from one statement about several compounds together.
# Biological target: T1, human MR (mineralocorticoid receptor) (Homo sapiens, UniProt P08235)
# T1 construct: expressed in transfected cells; host or cells: HEK293 (lysate, '293-MR lysate')
# T1 sequence (P08235 1-984): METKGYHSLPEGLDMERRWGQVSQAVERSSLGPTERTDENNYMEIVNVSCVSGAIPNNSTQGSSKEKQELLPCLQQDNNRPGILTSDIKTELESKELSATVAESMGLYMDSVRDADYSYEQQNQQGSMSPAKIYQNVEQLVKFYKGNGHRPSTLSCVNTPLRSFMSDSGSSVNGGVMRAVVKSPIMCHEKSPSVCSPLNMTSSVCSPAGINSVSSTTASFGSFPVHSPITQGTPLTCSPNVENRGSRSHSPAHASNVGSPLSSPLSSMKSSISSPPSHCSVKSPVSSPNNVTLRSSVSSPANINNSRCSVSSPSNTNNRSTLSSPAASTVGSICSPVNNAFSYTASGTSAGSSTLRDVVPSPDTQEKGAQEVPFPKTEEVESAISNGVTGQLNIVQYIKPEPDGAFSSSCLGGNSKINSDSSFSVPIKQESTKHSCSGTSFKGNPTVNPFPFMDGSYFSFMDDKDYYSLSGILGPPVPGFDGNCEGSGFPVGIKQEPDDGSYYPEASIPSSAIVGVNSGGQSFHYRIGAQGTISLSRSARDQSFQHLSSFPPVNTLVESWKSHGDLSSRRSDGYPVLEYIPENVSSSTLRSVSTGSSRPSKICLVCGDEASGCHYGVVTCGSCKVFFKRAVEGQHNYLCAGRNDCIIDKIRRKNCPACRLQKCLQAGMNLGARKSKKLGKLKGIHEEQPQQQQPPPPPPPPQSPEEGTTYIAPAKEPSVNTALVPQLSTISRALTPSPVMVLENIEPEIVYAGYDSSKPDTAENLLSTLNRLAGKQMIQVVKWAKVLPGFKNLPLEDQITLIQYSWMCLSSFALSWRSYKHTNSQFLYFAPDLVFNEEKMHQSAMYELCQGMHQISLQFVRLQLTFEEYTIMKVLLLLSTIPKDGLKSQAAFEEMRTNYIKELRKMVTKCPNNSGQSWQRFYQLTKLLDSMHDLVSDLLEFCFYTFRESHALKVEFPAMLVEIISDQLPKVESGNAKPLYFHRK
# Test: Steroid hormone nuclear receptor binding assay (MR binding)
# Details: HEK293 lysate overexpressing human MR, [3H]-aldosterone; individual values geometric mean of n=2
# Description: Cell lysates from human embryonic kidney HEK293 cells overexpressing human MR (mineralocorticoid receptor), GR (glucocorticoid receptor), AR (androgen receptor), or PR (progesterone receptor) are used for receptor-ligand competition binding assays to determine Ki values.
# Briefly, steroid receptor competition binding assays are run in a buffer containing 20 mM HEPES buffer (pH=7.6), 0.2 mM EDTA, 75 mM NaCl, 1.5 mM MgCl2, 20% glycerol, 20 mM sodium molybdate, 0.2 mM DTT (dithiothreitol), 20 μg/mL aprotinin and 20 μg/mL leupeptin (assay buffer). Typically, steroid receptor binding assays include radio-labeled ligands, such as 0.25 nM [^3H]-aldosterone for MR binding, 0.3 nM [^3H]-dexamethasone for GR binding, 0.36 nM [^3H]-methyltrienolone for AR binding, and 0.29 nM [^3H]-methyltrienolone for PR binding, and either 20 μg 293-MR lysate, 20 μg 293-GR lysate, 22 μg 293-AR lysate, or 40 μg 293-PR lysate per well. Assays are typically run in 96-well format. Competing test compounds are added at various concentrations ranging from about 0.01 nM to 10 μM. […] The binding reactions (140 μL) are incubated overnight at 4° C., then 70 μL of cold charcoal-dextran buffer (containing per 50 mL of assay buffer, 0.75 g of charcoal and 0.25 g of dextran) is added to each reaction. Plates are mixed for 8 minutes on an orbital shaker at 4° C. The plates are then centrifuged at 3,000 rpm at 4° C. for 10 minutes. An aliquot of 120 μL of the binding reaction mixture is then transferred to another 96-well plate and 175 μL of Wallac Optiphase Hisafe 3™ scintillation fluid is added to each well. Plates are sealed and shaken vigorously on an orbital shaker. After an incubation of 2 hours, plates are read in a Wallac Microbeta counter.
# The Kd for [^3H]-aldosterone for MR binding, [^3H]-dexamethasone for GR binding, [^3H]-methyltrienolone for AR binding, or [^3H]-methyltrienolone for PR binding, is determined by saturation binding. The IC50 values for compounds are converted to Ki using the Cheng-Prusoff equation.
row,SMILES,Ki
1,"C[C@H](CN1CCOCC1)n1/c(=N\C#N)[nH]c2cc(/C=C3\c4ccc(F)cc4COc4cc(F)ccc43)ccc21 [Example 1, (E)-N—((R)-5-((E)-3,8-Difluoro-6H-dibenzo[b,e]oxepin-11-ylidenemethyl)-1-(1-methyl-2-morpholin-4-yl-ethyl)-1,3-dihydro-benzoimidazol-2-ylidene)-cyanamide]",≤ 10 nM
2,"C[C@H](CN1CCOCC1)n1/c(=N\C#N)[nH]c2cc(/C=C3\c4ccccc4COc4cc(F)ccc43)ccc21 [Example 3, (E)-N-((R)-5-((E)-3-Fluoro-6H-dibenzo [b,e]oxepin-11-ylidenemethyl)-1-(1-methyl-2-morpholin-4-yl-ethyl)-1,3-dihydro-benzoimidazol-2-ylidene)-cyanamide]",≤ 10 nM
3,"CN1CCN(n2/c(=N/C#N)[nH]c3cc(/C=C4/c5ccc(F)cc5OCc5c(F)cccc54)ccc32)CC1 [Example 7, (E)-N-(5-((E)-3,7-Difluoro-6H-dibenzo[b,e]oxepin-11-ylidenemethyl)-1-(4-methyl-piperazin-1-yl)-1,3-dihydro-benzoimidazol-2-ylidene)-cyanamide]",≤ 10 nM
4,"CN1CCN(n2/c(=N\C#N)[nH]c3cc(/C=C4\c5ccccc5COc5cc(F)ccc54)ccc32)CC1 [Example 8, (E)-N-(5-((E)-3-Fluoro-6H-dibenzo[b,e]oxepin-11-ylidenemethyl)-1-(4-methyl-piperazin-1-yl)-1,3-dihydro-benzoimidazol-2-ylidene)-cyanamide]",≤ 10 nM
5,"CN1CCN(n2/c(=N/C#N)[nH]c3cc(/C=C4\c5ccc(F)cc5COc5cc(F)ccc54)ccc32)CC1 [Example 9, (E)-N-(5-((E)-3,8-Difluoro-6H-dibenzo[b,e]oxepin-11-ylidenemethyl)-1-(4-methyl-piperazin-1-yl)-1,3-dihydro-benzoimidazol-2-ylidene)-cyanamide]",≤ 10 nM
6,"N#CN=c1[nH]c2ccc(/C=C3\c4ccc(F)cc4COc4cc(F)ccc43)cc2[nH]1 [Example 10, 5-((E)-3,8-Difluoro-6H-dibenzo[b,e]oxepin-11-ylidenemethyl)-1,3-dihydro-benzoimidazol-2-ylidene-cyanamide]",≤ 10 nM
7,"CN1CC(n2/c(=N/C#N)[nH]c3cc(/C=C4/c5ccc(F)cc5OCc5c(F)cccc54)ccc32)C1 [Example 11, (E)-N-(5-((E)-3,7-Difluoro-6H-dibenzo[b,e]oxepin-11-ylidenemethyl)-1-(1-methyl-azetidin-3-yl)-1,3-dihydro-benzoimidazol-2-ylidene)-cyanamide]",≤ 10 nM
8,"CN1CC(n2/c(=N/C#N)[nH]c3cc(/C=C4\c5ccccc5COc5cc(F)ccc54)ccc32)C1 [Example 12, (E)-N-(5-((E)-3-Fluoro-6H-dibenzo[b,e]oxepin-11-ylidenemethyl)-1-(1-methyl-azetidin-3-yl)-1,3-dihydro-benzoimidazol-2-ylidene)-cyanamide]",≤ 10 nM
9,"CN1CC(n2/c(=N/C#N)[nH]c3cc(/C=C4\c5ccc(F)cc5COc5cc(F)ccc54)ccc32)C1 [Example 13, (E)-N-(5-((E)-3,8-Difluoro-6H-dibenzo[b,e]oxepin-11-ylidenemethyl)-1-(1-methyl-azetidin-3-yl)-1,3-dihydro-benzoimidazol-2-ylidene)-cyanamide]",≤ 10 nM
10,"N#C/N=c1\[nH]c2cc(/C=C3\c4ccccc4COc4cc(F)ccc43)ccc2n1[C@H]1C[C@H]2COCCN2C1 [Example 15, (E)-N-(5-((E)-3-Fluoro-6H-dibenzo[b,e]oxepin-11-ylidenemethyl)-1-((7S, 8aS)-hexahydro-pyrrolo[2,1-c][1,4]oxazin-7-yl)-1,3-dihydro-benzoimidazol-2-ylidene)-cyanamide]",≤ 10 nM
11,"N#C/N=c1\[nH]c2cc(/C=C3\c4ccc(F)cc4COc4cc(F)ccc43)ccc2n1[C@H]1C[C@H]2COCCN2C1 [Example 16, (E)-N-(5-((E)-3,8-Difluoro-6H-dibenzo[b,e]oxepin-11-ylidenemethyl)-1-((7S, 8aS)-hexahydro-pyrrolo[2,1-c][1,4]oxazin-7-yl)-1,3-dihydro-benzoimidazol-2-ylidene)-cyanamide]",≤ 10 nM
12,"N#C/N=c1\[nH]c2cc(/C=C3\c4ccccc4COc4cc(F)ccc43)ccc2n1[C@@H]1C[C@H]2COCCN2C1 [Example 18, (E)-N-(5-((E)-3-Fluoro-6H-dibenzo[b,e]oxepin-11-ylidenemethyl)-1-((7R, 8aS)-hexahydro-pyrrolo[2,1-c][1,4]oxazin-7-yl)-1,3-dihydro-benzoimidazol-2-ylidene)-cyanamide]",≤ 10 nM
13,"N#C/N=c1\[nH]c2cc(/C=C3\c4ccc(F)cc4COc4cc(F)ccc43)ccc2n1[C@@H]1C[C@H]2COCCN2C1 [Example 19, (E)-N-(5-((E)-3,8-Difluoro-6H-dibenzo[b,e]oxepin-11-ylidenemethyl)-1-((7R, 8aS)-hexahydro-pyrrolo[2,1-c][1,4]oxazin-7-yl)-1,3-dihydro-benzoimidazol-2-ylidene)-cyanamide]",≤ 10 nM
14,"N#C/N=c1\[nH]c2cc(/C=C3\c4ccc(F)cc4COc4cc(F)ccc43)ccc2n1[C@@H]1C[C@@H]2COCCN2C1 [Example 21, (E)-N-(5-((E)-3,8-Difluoro-6H-dibenzo[b,e]oxepin-11-ylidenemethyl)-1-((7R, 8aR)-hexahydro-pyrrolo[2,1-c][1,4]oxazin-7-yl)-1,3-dihydro-benzoimidazol-2-ylidene)-cyanamide]",≤ 10 nM
15,"N#C/N=c1\[nH]c2cc(/C=C3\c4ccccc4COc4cc(F)ccc43)ccc2n1[C@@H]1C[C@@H]2COCCN2C1 [Example 22, (E)-N-(5-((E)-3-Fluoro-6H-dibenzo[b,e]oxepin-11-ylidenemethyl)-1-((7R, 8aR)-hexahydro-pyrrolo[2,1-c][1,4]oxazin-7-yl)-1,3-dihydro-benzoimidazol-2-ylidene)-cyanamide]",≤ 10 nM
16,"N#C/N=c1/[nH]c2cc(/C=C3/c4ccc(F)cc4OCc4c(F)cccc43)ccc2n1[C@H]1C[C@@H]2COCCN2C1 [Example 23, (E)-N-(5-((E)-3,7-Difluoro-6H-dibenzo[b,e]oxepin-11-ylidenemethyl)-1-((7S, 8aR)-hexahydro-pyrrolo[2,1-c][1,4]oxazin-7-yl)-1,3-dihydro-benzoimidazol-2-ylidene)-cyanamide]",≤ 10 nM
17,"N#C/N=c1\[nH]c2cc(/C=C3\c4ccc(F)cc4COc4cc(F)ccc43)ccc2n1[C@H]1C[C@@H]2COCCN2C1 [Example 24, (E)-N-(5-((E)-3,8-Difluoro-6H-dibenzo[b,e]oxepin-11-ylidenemethyl)-1-((7S, 8aR)-hexahydro-pyrrolo[2,1-c][1,4]oxazin-7-yl)-1,3-dihydro-benzoimidazol-2-ylidene)-cyanamide]",≤ 10 nM
18,"N#C/N=c1\[nH]c2cc(/C=C3\c4ccccc4COc4cc(F)ccc43)ccc2n1[C@H]1C[C@@H]2COCCN2C1 [Example 25, (E)-N-(5-((E)-3-Fluoro-6H-dibenzo[b,e]oxepin-11-ylidenemethyl)-1-((7S, 8aR)-hexahydro-pyrrolo[2,1-c][1,4]oxazin-7-yl)-1,3-dihydro-benzoimidazol-2-ylidene)-cyanamide]",≤ 10 nM
